Test results reported in US20080050460A1.
These are yes or no findings as the source states them, for the method shown. Some binding calls cover weakened binding; strength is not graded here.

Amino acid sequences for entries named in this document (tags omitted). Residues count along the entry.
UniProt Q9UK10: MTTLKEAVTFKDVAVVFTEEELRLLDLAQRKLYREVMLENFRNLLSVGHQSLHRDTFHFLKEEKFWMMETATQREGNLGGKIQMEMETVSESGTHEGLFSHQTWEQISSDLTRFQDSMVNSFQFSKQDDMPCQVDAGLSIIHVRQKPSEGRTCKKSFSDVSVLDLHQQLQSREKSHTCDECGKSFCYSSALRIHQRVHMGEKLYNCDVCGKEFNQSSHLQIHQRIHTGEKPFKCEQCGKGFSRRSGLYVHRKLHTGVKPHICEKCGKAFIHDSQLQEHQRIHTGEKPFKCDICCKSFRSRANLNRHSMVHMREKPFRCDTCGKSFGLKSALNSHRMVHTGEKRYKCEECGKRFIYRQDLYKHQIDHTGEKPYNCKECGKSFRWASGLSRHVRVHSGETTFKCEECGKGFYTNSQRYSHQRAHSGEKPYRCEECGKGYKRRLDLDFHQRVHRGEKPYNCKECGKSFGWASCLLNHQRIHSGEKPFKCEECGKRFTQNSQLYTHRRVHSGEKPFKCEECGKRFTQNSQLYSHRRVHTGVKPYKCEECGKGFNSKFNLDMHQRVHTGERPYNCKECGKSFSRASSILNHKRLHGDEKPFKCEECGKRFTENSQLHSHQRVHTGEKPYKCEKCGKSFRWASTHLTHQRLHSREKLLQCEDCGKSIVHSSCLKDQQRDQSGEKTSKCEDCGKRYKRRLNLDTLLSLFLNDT
UniProt P06748: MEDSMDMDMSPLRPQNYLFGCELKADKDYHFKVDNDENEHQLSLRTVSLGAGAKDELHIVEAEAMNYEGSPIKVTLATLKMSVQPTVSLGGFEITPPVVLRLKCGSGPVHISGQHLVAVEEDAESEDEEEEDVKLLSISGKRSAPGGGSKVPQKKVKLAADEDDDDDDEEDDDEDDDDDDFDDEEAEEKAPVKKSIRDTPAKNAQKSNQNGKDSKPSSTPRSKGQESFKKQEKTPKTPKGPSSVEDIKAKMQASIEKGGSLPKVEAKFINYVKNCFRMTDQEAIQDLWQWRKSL
UniProt P14625, residues 22-803: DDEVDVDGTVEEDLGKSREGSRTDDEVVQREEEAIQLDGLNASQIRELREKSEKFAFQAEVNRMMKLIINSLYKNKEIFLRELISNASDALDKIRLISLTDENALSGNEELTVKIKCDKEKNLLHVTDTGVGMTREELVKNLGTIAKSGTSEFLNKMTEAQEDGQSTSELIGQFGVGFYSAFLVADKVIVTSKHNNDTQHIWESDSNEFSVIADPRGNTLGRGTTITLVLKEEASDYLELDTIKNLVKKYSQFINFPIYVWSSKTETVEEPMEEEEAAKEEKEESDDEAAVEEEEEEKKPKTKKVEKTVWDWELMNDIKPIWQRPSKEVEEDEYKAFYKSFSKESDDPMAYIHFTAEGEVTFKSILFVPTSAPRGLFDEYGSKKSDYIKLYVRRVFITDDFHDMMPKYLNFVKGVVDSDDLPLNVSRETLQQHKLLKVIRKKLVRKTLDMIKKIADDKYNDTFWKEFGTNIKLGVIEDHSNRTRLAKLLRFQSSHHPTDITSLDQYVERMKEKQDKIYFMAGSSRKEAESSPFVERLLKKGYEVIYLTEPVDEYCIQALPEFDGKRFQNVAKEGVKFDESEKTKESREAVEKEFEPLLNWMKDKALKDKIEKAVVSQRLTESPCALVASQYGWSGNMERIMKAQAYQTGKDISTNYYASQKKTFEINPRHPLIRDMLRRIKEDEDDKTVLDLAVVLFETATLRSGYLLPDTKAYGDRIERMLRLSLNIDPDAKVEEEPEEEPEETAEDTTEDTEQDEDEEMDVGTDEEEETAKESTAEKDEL

Assays:
ZNF225 = ZNF225 (UniProt Q9UK10); experiment: identification of polypeptides chaperoned by or associated with gp96, method not detailed
B23 nucleophosmin = B23 nucleophosmin (UniProt P06748); experiment: identification of polypeptides associated with the gp96 complex, method not detailed

- binding (ZNF225): binds
- binding (B23 nucleophosmin): binds
Substance: tumour rejection antigen gp96 (from UniProt P14625 22-803)
